# In all, about 340,000 compounds went through this assay and about 6,200 (1.8%) were called active. Inconclusive means that the source gave no clear call. Such entries were picked first, then a sample of the others. Calls follow the shape of the dose curve; as a rule, active = well fitted activation curve with a large enough effect; inconclusive = small, poorly fitted or top-dose-only effect; inactive = no such curve, though single readings can be large or run the other way. Potencies beside an inconclusive call are fits to weak or partial responses and may not hold up.
# Assay: A quantitative high throughput screen for small molecules that induce DNA re-replication in SW480 colon adenocarcinoma cells. Also: nearly all actives have a fitted effect of over 55% in size. As to re-replication activation: % of control where 0% means no effect.
# Settings: Hoechst DNA content imaging, 48 h; re-replication activation: at 46.1 µM (top of the series)
# How it was run: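 Readout is total intensity of Hoechst-stained nuclei, excited at 405 nm and collected at 500-530 nm. Compound treatment lasted 48 hr at 37 C in 5% CO2 before staining.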
# Potency is read from the fitted curve at half-maximal effect.
Structure (SMILES),Potency,re-replication activation
O=C(NCC(c1cccs1)N1CCOCC1)c1ccc(Br)o1 (stereo not given),active: 8.2 µM,–
Cc1ccc(NC(=O)c2ccc(=O)n(CC(=O)Nc3ccccc3)n2)cc1,–,inactive: 0.121%
CC(OC(=O)c1ccc(O)cc1)C(=O)Nc1cc(C(F)(F)F)ccc1Cl (stereo not given),"inconclusive: 29.1 µM [activator, single point]",–
Nc1nc(CCl)nc(Nc2cccc3ccccc23)n1,"inconclusive: 5.8 µM [activator, full curve, poor fit]",–
CCCC(=O)NC(c1cccs1)c1cc(Cl)c2cccnc2c1O (stereo not given),active: 1.3 µM,–
O=C(NNc1c2ccccc2nc2ccccc12)c1ccccc1O,–,inactive: -12.1%
Cc1ccc(N=CC=C2OC(C)(C)C(C)(C)O2)cc1,active: 0.82 µM,–
N#Cc1nc(-c2cccc3ccccc23)oc1NCCN1CCCCC1,"inconclusive: 29.1 µM [activator, single point]",–
CC1CN(C2=N/C(=C/c3ccc4c(c3)OCO4)C(=O)N2)CC(C)O1 (stereo not given),"inconclusive: 16.4 µM [activator, partial curve, poor fit]",–
O=C(Cc1c(F)cccc1Cl)Nc1cc(S(=O)(=O)N2CCOCC2)ccc1N1CCOCC1,"inconclusive: 32.6 µM [activator, partial curve, poor fit]",–
O=[N+]([O-])c1cc(Br)c(O)c(/C=N/Nc2nc3ccccc3s2)c1,active: 3.26 µM,–
Cc1ccc2[nH]cc(C(=O)CN3CCN(c4ccccc4F)CC3)c2c1,–,inactive: 1.4%
CCCn1c(=S)[nH]c2cc(C(=O)N3CCc4ccccc43)ccc2c1=O,–,inactive: -8.36%
COc1ccc(-c2cc3c(=O)n(CC(=O)Nc4ccc(Cl)cc4)ncn3n2)cc1,–,inactive: -0.707%
COc1cc(C(=O)N/N=C(\Cc2ncc[nH]2)c2ccccc2)cc(OC)c1OC,"inconclusive: 3.66 µM [activator, full curve, poor fit]",–
O=C(c1ccc2c3n(nc2c1)-c1ccc(Cl)cc1CO3)N1CCCCC1,–,inactive: -6.9%
Cc1cc(-n2[nH]c(C)c(C)c2=O)nc(-c2ccccc2O)n1,"inconclusive: 29.1 µM [activator, single point]",–
O=C1CC(c2ccc3c(c2)OCCO3)Oc2ccccc21 (stereo not given),"inconclusive: 18.4 µM [activator, single point]",–
CCCNc1c(NC(=O)c2ccc3c(c2)OCO3)c(=O)oc2ccccc12,–,inactive: -6.2%
CC1CCN(c2ccc(NC(=O)c3ccc([N+](=O)[O-])o3)cc2)CC1,active: 9.2 µM,–
CCOC(=O)c1ccccc1NC(=O)c1ccc(Cl)c(S(=O)(=O)N2CCOCC2)c1,–,inactive: -3.88%
CCn1cc(C(=O)NCC2CCCO2)c(=O)c2cc(S(=O)(=O)N3CCC(C)CC3)ccc21 (stereo not given),–,inactive: 0.412%
COC(=O)Cn1c(=O)c(C(=O)CCl)c(N)n(Cc2ccccc2)c1=O,"inconclusive: 5.17 µM [activator, full curve]",–

# Copied from above for reference:
Structure (SMILES),Potency,re-replication activation
O=C(NCC(c1cccs1)N1CCOCC1)c1ccc(Br)o1 (stereo not given),active: 8.2 µM,–
Cc1ccc(NC(=O)c2ccc(=O)n(CC(=O)Nc3ccccc3)n2)cc1,–,inactive: 0.121%
CC(OC(=O)c1ccc(O)cc1)C(=O)Nc1cc(C(F)(F)F)ccc1Cl (stereo not given),"inconclusive: 29.1 µM [activator, single point]",–

# (listing goes on)

Structure (SMILES),Potency,re-replication activation
CCN(CC(=O)Nc1ccc2c(c1)OCCO2)C(=O)c1cc(Cl)nc2ccccc12,–,inactive: -13.2%
CCn1c(=O)c2cc(C(=O)N3CCN(C)CC3)sc2c2ccccc21,–,inactive: -2.75%
O=c1c2ccccc2sn1-c1ccc(F)cc1,"inconclusive: 4.11 µM [activator, partial curve, poor fit]",–
COc1ccc(NS(=O)(=O)c2cc(NC(=O)Cc3cccs3)ccc2C)cc1,"inconclusive: 29.1 µM [activator, single point]",–
c1ccc(-c2ccccc2OCCCCN2CCCCCC2)cc1,"inconclusive: 20.6 µM [activator, partial curve, poor fit]",–
NS(=O)(=O)c1ccc(N/N=C/c2cn(-c3ccccc3)nc2-c2cccs2)cc1,"inconclusive: 23.1 µM [activator, single point]",–
N#Cc1ccc(OCC(=O)Nc2ccccc2NS(=O)(=O)c2cccs2)cc1,"inconclusive: 29.1 µM [activator, partial curve, poor fit]",–
Oc1ccccc1CNc1ccc(Br)cn1,–,inactive: 0.286%
COc1ccc(O)c(/C=N/NC(=O)CN2CCS(=O)(=O)CC2)c1,"inconclusive: 29.1 µM [activator, single point]",–
COC(=O)c1cc(S(=O)(=O)NCC2CCN(Cc3ccc(C)cc3)CC2)c[nH]1,"inconclusive: 0.259 µM [activator, full curve, poor fit]",–
CCOC(=O)Nc1ccc2c(c1)N(C(=O)CN(CC)CC)c1ccccc1CC2,"inconclusive: 29.1 µM [activator, single point]",–
Cc1nn(-c2cccc(Cl)c2)nc1C(=O)Nc1cccc(C(=O)NC2CC2)c1,"inconclusive: 23.1 µM [activator, single point]",–
CC(CCc1ccccc1)NC(=O)C(=O)NCCc1ccccc1 (stereo not given),"inconclusive: 6.51 µM [activator, partial curve, poor fit]",–
CCCCn1c(-c2cc(Cl)ccc2OC)n[nH]c1=S,"inconclusive: 11.2 µM [activator, partial curve, poor fit]",–
Cc1ccc(S(=O)(=O)N2CCN=C2SCc2c(F)cccc2Cl)cc1,"inconclusive: 20.6 µM [activator, single point]",–
CC1(C)CCN2CCC(C)(C)c3c(O)ccc1c32,"inconclusive: 8.2 µM [activator, partial curve, poor fit]",–
O=C(NCc1nnnn1-c1ccc(F)cc1)c1ccc([N+](=O)[O-])o1,"inconclusive: 18.4 µM [activator, partial curve, poor fit]",–
O=C(N/N=C/c1cc(Br)ccc1O)Nc1ccccc1,"inconclusive: 4.61 µM [activator, full curve]",–
CC(c1ccccc1)c1nnc(NC(=O)Nc2ccccc2)s1 (stereo not given),"inconclusive: 18.4 µM [activator, single point]",–
COc1ccc2cc(-c3cc(C(=O)OCC(=O)NC4CCS(=O)(=O)C4)c4ccccc4n3)ccc2c1 (stereo not given),"inconclusive: 29.1 µM [activator, single point]",–
O=c1c(Cc2ccc(F)cc2)c(O)ccn1CCCn1ccnc1,"inconclusive: 1.16 µM [activator, single point]",–
CCOc1ccc(C2C(C(=O)OC)=CN(CCOC)C=C2C(=O)OC)cc1,"inconclusive: 32.6 µM [activator, partial curve, poor fit]",–
